# “And” between values parts separate entries of the source, which are not always exact repeats. Equal entries are not always repeated. Structures can show the parent of a compound that is named as a salt. ± gives the standard deviation of the averaged measurements. The list shows a part of the results. Part of the spread comes from offsets between plates or batches.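 Culture-activated primary human stellate myofibroblasts, where regained lipid droplets signal inactivation. Value: share of Hoechst-counted cells above a per-plate Bodipy cutoff, in duplicate wells, with DMSO negative and nortriptyline positive controls on each plate. Hits: a control-normalized score above the plate's top-tenth-percentile nortriptyline wells, or one of a plate's three best wells. Final well concentrations are not given.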
# System: primary human hepatic stellate cells (donor 1)
# Assay: percent Bodipy-positive cells; higher = more lipid droplet accumulation
# Details: 48 h
# [1] = library stock concentration: 3.33 mM
# [2] = library stock concentration: 10 mM
# [3] = library stock concentration: 1 mM
# [4] = library stock concentration: 80 uM
# [5] = library stock concentration: 400 uM
# [6] = library stock concentration: 2 mM
compound,measurement,setting,value
CNC(=O)[C@H](Cc1ccccc1)NC(=O)[C@H](CC(C)C)[C@H](CSc1cccs1)C(=O)NO [Batimastat (BB-94)],percent Bodipy-positive cells,[1],30.8 ± 5.6%
same,percent Bodipy-positive cells,[2],29.19 ± 0.16%
CNCCC(Oc1ccc(C(F)(F)F)cc1)c1ccccc1.Cl (stereo unspecified) [Fluoxetine HCl],percent Bodipy-positive cells,[1],77.5 ± 5.7%
same,percent Bodipy-positive cells,[2],86.1 ± 8.9%
CCCCC[C@H](O)C/C=C1/C(=O)C=C[C@@H]1C/C=C\CCCC(=O)O [D12-Prostaglandin J2],percent Bodipy-positive cells,[3],7.05 ± 6.6%
CS(=O)(=O)CCNCc1ccc(-c2ccc3ncnc(Nc4ccc(OCc5cccc(F)c5)c(Cl)c4)c3c2)o1.Cc1ccc(S(=O)(=O)O)cc1.Cc1ccc(S(=O)(=O)O)cc1,percent Bodipy-positive cells,[1],98.18 ± 0.32%
same,percent Bodipy-positive cells,[2],99.57 ± 0.35%
Cn1nnnc1SCC1=C(C(=O)O)N2C(=O)[C@@H](NC(=O)[C@H](OC=O)c3ccccc3)[C@H]2SC1 [Cefamandole nafate],percent Bodipy-positive cells,[2],27.7 ± 7.5%
CO/N=C(\C(=O)N[C@@H]1C(=O)N2C(C(=O)O)=C(C[N+]3(C)CCCC3)CS[C@H]12)c1csc(N)n1 [Cefepime hydrochloride],percent Bodipy-positive cells,,10.5 ± 5.9%
CCOC(=O)[C@H](CCc1ccccc1)N[C@@H](C)C(=O)N1CCC[C@H]1C(=O)O [Enalapril Maleate],percent Bodipy-positive cells,[1],11.8 ± 2.1%
same,percent Bodipy-positive cells,[2],20.5 ± 12%
CCOC(=O)[C@H](CCc1ccccc1)N[C@@H](C)C(=O)N1CCC[C@H]1C(=O)O,percent Bodipy-positive cells,[2],54.2 ± 20%
CCOC(=O)[C@H](CCc1ccccc1)N[C@@H](C)C(=O)N1CCC[C@H]1C(=O)O [Enalapril],percent Bodipy-positive cells,library stock concentration: 5.3 mM,8.99 ± 0.59%
CCOC(=O)[C@H](CCc1ccccc1)N[C@@H](C)C(=O)N1CCC[C@H]1C(=O)O [Enalapril maleate],percent Bodipy-positive cells,,24.707 ± 0.023%
same,percent Bodipy-positive cells,[2],24.4 ± 3.9%
O=C1CC2(CCCC2)CC(=O)N1CCNCC1COc2ccccc2O1 (stereo unspecified),percent Bodipy-positive cells,[2],11.9% and 9.36%
NC[C@@H]1O[C@H](c2ccccc2)Cc2c1ccc(O)c2O,percent Bodipy-positive cells,[2],26.9 ± 0.72%
CCCCC[C@H](O)/C=C/[C@H]1[C@H](O)CC(=O)[C@@H]1C/C=C\CCCC(=O)NC(CO)CO [Prostaglandin E2 serinol amide],percent Bodipy-positive cells,[3],13 ± 3.4%
CCCCC(=O)O[C@]1(C(=O)CO)CC[C@H]2[C@@H]3CCC4=CC(=O)CC[C@]4(C)[C@H]3[C@@H](O)C[C@@]21C [Hydrocortisone valerate],percent Bodipy-positive cells,library stock concentration: 4.5 mM,12.6 ± 10%
CCCCC(=O)O[C@]1(C(=O)CO)CC[C@H]2[C@@H]3CCC4=CC(=O)CC[C@]4(C)[C@H]3[C@@H](O)C[C@@]21C [Westcort],percent Bodipy-positive cells,[2],20.7 ± 3.5%
CCC[C@H](NC(=O)[C@@H]1[C@H]2CCC[C@H]2CN1C(=O)[C@@H](NC(=O)[C@@H](NC(=O)c1cnccn1)C1CCCCC1)C(C)(C)C)C(=O)C(=O)NC1CC1 [Telaprevir (VX-950)],percent Bodipy-positive cells,[1],9.22 ± 1%
same,percent Bodipy-positive cells,[2],19.5 ± 5.6%
Cc1noc(NS(=O)(=O)c2ccc(N)cc2)c1C [Sulfisoxazole],percent Bodipy-positive cells,,21.4 ± 2.8%
same,percent Bodipy-positive cells,[1],9.48 ± 3.9%
same,percent Bodipy-positive cells,library stock concentration: 7.5 mM,11.9 ± 5.4%
same,percent Bodipy-positive cells,[2],12.3% and 5.1% and 20.9%
CCc1cccc2c3c([nH]c12)C(CC)(CC(=O)O)OCC3 (stereo unspecified) [Etodolac],percent Bodipy-positive cells,,24.2 ± 11%
same,percent Bodipy-positive cells,[1],11.5 ± 5.9%
same,percent Bodipy-positive cells,library stock concentration: 7 mM,12.1 ± 0.32%
same,percent Bodipy-positive cells,[2],31.7% and 19% and 30.8%
CC[N+](CC)(CC)CCC(O)(c1ccccc1)C1CCCCC1 (stereo unspecified) [Tridihexethyl chloride],percent Bodipy-positive cells,,8.15 ± 2%
OCC(O)C(O)CO (stereo unspecified) [Erythritol],percent Bodipy-positive cells,[1],19.3 ± 2.2%
same,percent Bodipy-positive cells,[2],35.43 ± 0.35%
C[C@@H]1CN(CC(=O)Nc2ccc3c(c2)Cc2cccc(-c4cc(=O)cc(N5CCOCC5)o4)c2S3)C[C@H](C)O1,percent Bodipy-positive cells,[4],11.1 ± 2.5%
same,percent Bodipy-positive cells,[5],10.4 ± 3.8%
same,percent Bodipy-positive cells,[6],12.7 ± 2%
same,percent Bodipy-positive cells,[1],12.8 ± 6.6%
same,percent Bodipy-positive cells,[2],29.3% and 27.9%
CO[C@H]1C=C[C@@]23c4cc5c(cc4CN(C[C@@H]2O)[C@H]3C1)OCO5 [Crinamine],percent Bodipy-positive cells,[2],79.64 ± 0.17%
C[C@]12CC[C@@H]3c4ccc(O)cc4CC[C@H]3[C@@H]1C[C@@H](O)[C@@H]2O [Estriol],percent Bodipy-positive cells,,6.45 ± 1.6%
same,percent Bodipy-positive cells,[1],8.78 ± 0.82%
same,percent Bodipy-positive cells,library stock concentration: 6.9 mM,7.2% and 3.25%
same,percent Bodipy-positive cells,[2],6.5% and 7.75%
CN(C)CCCO[C@@H]1[C@H]2OC(C)(C)O[C@H]2O[C@@H]1[C@H](O)CO [Amiprilose hydrochloride],percent Bodipy-positive cells,,8.52 ± 3.9%
CN(C)CCCO[C@@H]1[C@H]2OC(C)(C)O[C@H]2O[C@@H]1[C@H](O)CO [Amiprilose],percent Bodipy-positive cells,library stock concentration: 5.9 mM,21 ± 2%
same,percent Bodipy-positive cells,[2],27.3 ± 14%
Cc1nc(N)sc1-c1ccnc(Nc2ccc(N3CCOCC3)cc2)n1,percent Bodipy-positive cells,[5],22.2 ± 0.41%
same,percent Bodipy-positive cells,[6],48.7 ± 21%
same,percent Bodipy-positive cells,[1],42.9 ± 27%
C=CC(=O)Nc1ccc2ncnc(Nc3ccc(OCc4cccc(F)c4)c(Cl)c3)c2c1,percent Bodipy-positive cells,[4],6.01 ± 2.4%
same,percent Bodipy-positive cells,[5],8.22 ± 0.4%
same,percent Bodipy-positive cells,[6],6.42 ± 0.76%
same,percent Bodipy-positive cells,[1],18.7 ± 0.86%
same,percent Bodipy-positive cells,[2],50.1% and 71.2%
CCCCC[C@H](O)/C=C/C=C\C=C\C=C\[C@@H](O)[C@@H](O)CCCC(=O)O [Lipoxin A4],percent Bodipy-positive cells,library stock concentration: 100 uM,10.6 ± 9.4%
CC1=C(CC(=O)O)c2cc(F)ccc2/C1=C\c1ccc([S+](C)[O-])cc1 (stereo unspecified) [Sulindac],percent Bodipy-positive cells,,36.2 ± 16%
same,percent Bodipy-positive cells,[3],10.4 ± 2%
same,percent Bodipy-positive cells,[1],7.54 ± 0.69%
CC(Oc1c(Cl)cccc1Cl)C1=NCCN1 (stereo unspecified) [Lofexidine],percent Bodipy-positive cells,library stock concentration: 7.7 mM,11.3 ± 2.9%
C=CC(=O)N1CCC[C@@H](n2nc(-c3ccc(Oc4ccccc4)cc3)c3c(N)ncnc32)C1,percent Bodipy-positive cells,[4],18.9 ± 11%
same,percent Bodipy-positive cells,[5],40.6 ± 0.97%
same,percent Bodipy-positive cells,[6],21.3 ± 5.2%
same,percent Bodipy-positive cells,[1],11.3 ± 1.3%
same,percent Bodipy-positive cells,[2],19.6% and 31.1%
CC(=O)N1CCN(CCOc2ccc(C3CCN(C4=Nn5c(nnc5C(F)(F)F)CC4)CC3)cc2)CC1,percent Bodipy-positive cells,[1],9.39 ± 0.47%
same,percent Bodipy-positive cells,[2],73.1 ± 23%
COc1ccc2cc1Oc1ccc(cc1)C[C@@H]1c3c(cc4c(c3Oc3cc5c(cc3OC)CCN(C)[C@H]5C2)OCO4)CCN1C [Cepharanthine],percent Bodipy-positive cells,[1],100%
CC(C)COC(=O)c1ccc(N)cc1,percent Bodipy-positive cells,[2],54.8 ± 16%
O=C1N(c2ccccc2)c2ccccc2C1(Cc1ccncc1)Cc1ccncc1,percent Bodipy-positive cells,[2],10.6 ± 4.5%
O=C1N(c2ccccc2)c2ccccc2C1(Cc1ccncc1)Cc1ccncc1 [Linopirdine dihydrochloride],percent Bodipy-positive cells,[2],6.03 ± 0.73%
O=C1N(c2ccccc2)c2ccccc2C1(Cc1ccncc1)Cc1ccncc1 [Linopirdine],percent Bodipy-positive cells,[2],37.8 ± 1.8%
[I-].[K+] [Potassium Iodide],percent Bodipy-positive cells,[1],8.62 ± 3.8%
same,percent Bodipy-positive cells,[2],17.9 ± 2.8%
CN(C)CCCOc1nn(Cc2ccccc2)c2ccccc12.Cl [Benzydamine HCl],percent Bodipy-positive cells,[2],94.4 ± 2.6%
c1ccc2[nH]cnc2c1 [DRB (Benzimidazole)],percent Bodipy-positive cells,library stock concentration: 15.7 mM,30.1 ± 9.4%
Cc1cc(-n2c(=O)[nH]c(=O)n(C)c2=O)ccc1Oc1ccc(SC(F)(F)F)cc1 [Toltrazuril],percent Bodipy-positive cells,[1],8.05 ± 1.8%
same,percent Bodipy-positive cells,library stock concentration: 4.7 mM,9.52 ± 2.6%
same,percent Bodipy-positive cells,[2],42.8 ± 32%
N#CCNC(=O)c1ccc(-c2ccnc(Nc3ccc(N4CCOCC4)cc3)n2)cc1,percent Bodipy-positive cells,[1],91.6 ± 2.1%
same,percent Bodipy-positive cells,[2],99.68 ± 0.46%
"CCCn1c(=O)c2[nH]c(-c3ccc(S(=O)(=O)O)cc3)nc2n(CCC)c1=O [1,3-Dipropyl-8-p-sulfophenylxanthine]",percent Bodipy-positive cells,[2],32.4 ± 1.6%

# Quoted at random: two records from the list
compound,measurement,setting,value
Cc1noc(NS(=O)(=O)c2ccc(N)cc2)c1C [Sulfisoxazole],percent Bodipy-positive cells,[1],9.48 ± 3.9%
CCc1cccc2c3c([nH]c12)C(CC)(CC(=O)O)OCC3 (stereo unspecified) [Etodolac],percent Bodipy-positive cells,library stock concentration: 7 mM,12.1 ± 0.32%

# Reference: the supplement of paper PMC9135407
